# The supplement of paper PMC10849652
# Sequences of proteins named here, by UniProt entry; tags and fusion partners are left off. A change or cut given only in a name is not applied to a line headed by its entry.
# UniProt Q14980: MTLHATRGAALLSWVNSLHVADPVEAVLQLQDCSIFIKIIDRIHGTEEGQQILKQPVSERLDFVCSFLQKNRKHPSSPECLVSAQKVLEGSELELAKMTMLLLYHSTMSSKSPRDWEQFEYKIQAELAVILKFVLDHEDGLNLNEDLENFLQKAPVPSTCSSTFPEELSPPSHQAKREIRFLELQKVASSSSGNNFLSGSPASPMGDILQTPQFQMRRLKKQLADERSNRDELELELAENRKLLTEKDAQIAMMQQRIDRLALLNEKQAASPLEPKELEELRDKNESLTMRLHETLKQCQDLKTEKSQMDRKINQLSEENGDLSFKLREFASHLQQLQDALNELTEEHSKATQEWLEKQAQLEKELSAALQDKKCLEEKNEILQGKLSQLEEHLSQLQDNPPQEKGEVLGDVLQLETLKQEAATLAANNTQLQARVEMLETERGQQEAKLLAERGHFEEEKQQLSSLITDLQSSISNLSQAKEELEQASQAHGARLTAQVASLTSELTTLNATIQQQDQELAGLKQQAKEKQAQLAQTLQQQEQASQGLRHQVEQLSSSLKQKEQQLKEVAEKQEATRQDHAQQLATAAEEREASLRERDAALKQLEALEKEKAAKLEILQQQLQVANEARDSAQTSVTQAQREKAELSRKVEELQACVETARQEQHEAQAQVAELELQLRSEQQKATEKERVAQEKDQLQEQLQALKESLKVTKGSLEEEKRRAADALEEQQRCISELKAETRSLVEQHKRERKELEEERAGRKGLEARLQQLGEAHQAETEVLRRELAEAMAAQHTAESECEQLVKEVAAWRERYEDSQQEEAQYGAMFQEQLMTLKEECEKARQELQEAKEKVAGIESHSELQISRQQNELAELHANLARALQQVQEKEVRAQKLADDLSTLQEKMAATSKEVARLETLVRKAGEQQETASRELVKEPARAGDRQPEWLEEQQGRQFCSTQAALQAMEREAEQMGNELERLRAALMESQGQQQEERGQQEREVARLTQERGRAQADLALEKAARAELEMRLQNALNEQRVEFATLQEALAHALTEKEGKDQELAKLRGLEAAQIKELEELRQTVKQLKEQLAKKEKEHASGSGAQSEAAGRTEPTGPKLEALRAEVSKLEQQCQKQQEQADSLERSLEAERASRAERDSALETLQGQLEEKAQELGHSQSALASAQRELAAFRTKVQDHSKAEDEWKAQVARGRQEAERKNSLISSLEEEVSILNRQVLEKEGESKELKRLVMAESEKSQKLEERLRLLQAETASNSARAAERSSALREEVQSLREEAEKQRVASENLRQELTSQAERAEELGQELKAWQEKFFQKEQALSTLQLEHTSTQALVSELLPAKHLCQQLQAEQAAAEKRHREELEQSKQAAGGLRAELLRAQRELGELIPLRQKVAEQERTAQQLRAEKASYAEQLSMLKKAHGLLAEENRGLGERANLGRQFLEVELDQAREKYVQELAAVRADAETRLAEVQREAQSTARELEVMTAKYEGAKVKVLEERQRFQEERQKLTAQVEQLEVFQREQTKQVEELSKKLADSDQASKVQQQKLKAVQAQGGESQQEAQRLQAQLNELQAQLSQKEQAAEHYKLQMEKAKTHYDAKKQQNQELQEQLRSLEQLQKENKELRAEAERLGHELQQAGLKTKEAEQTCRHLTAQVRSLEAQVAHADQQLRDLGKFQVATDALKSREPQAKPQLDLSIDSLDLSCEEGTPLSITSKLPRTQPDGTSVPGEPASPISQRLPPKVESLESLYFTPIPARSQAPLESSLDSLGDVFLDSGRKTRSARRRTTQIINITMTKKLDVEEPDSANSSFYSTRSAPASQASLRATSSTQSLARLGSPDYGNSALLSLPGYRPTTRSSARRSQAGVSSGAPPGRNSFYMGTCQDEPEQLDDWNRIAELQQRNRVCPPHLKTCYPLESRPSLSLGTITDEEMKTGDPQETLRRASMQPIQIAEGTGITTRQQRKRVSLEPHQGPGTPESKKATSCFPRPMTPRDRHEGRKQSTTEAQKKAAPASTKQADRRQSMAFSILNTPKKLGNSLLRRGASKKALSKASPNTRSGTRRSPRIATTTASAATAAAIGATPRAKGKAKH
# UniProt Q96DE0: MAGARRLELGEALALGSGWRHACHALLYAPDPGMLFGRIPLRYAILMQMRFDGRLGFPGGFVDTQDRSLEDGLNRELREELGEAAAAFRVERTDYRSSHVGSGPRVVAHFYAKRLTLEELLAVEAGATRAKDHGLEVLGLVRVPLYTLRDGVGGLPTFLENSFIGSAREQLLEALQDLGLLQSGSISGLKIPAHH
# UniProt Q9BZF3: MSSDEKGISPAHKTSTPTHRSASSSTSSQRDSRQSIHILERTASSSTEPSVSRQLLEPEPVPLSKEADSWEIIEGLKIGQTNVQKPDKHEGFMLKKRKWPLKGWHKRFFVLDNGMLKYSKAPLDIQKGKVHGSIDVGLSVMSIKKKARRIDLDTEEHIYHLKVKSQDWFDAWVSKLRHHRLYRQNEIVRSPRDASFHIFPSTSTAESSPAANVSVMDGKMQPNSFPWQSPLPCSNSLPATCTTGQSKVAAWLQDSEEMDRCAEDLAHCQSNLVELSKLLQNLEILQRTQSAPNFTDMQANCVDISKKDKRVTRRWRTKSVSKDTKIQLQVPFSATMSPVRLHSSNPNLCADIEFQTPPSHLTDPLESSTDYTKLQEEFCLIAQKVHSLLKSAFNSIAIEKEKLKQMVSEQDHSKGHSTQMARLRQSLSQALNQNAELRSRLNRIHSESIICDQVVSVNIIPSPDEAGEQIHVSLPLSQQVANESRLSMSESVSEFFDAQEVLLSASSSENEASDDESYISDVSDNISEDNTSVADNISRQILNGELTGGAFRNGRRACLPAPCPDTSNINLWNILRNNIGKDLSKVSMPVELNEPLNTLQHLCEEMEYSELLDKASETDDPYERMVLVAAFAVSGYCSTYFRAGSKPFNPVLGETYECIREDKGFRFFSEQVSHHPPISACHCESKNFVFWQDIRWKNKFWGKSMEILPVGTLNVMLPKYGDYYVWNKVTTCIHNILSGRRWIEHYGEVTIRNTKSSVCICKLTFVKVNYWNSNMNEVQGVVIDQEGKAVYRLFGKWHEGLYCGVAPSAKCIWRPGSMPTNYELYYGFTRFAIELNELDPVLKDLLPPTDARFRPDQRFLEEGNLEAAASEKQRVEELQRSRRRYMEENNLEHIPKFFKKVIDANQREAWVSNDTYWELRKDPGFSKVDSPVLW
# UniProt O60313: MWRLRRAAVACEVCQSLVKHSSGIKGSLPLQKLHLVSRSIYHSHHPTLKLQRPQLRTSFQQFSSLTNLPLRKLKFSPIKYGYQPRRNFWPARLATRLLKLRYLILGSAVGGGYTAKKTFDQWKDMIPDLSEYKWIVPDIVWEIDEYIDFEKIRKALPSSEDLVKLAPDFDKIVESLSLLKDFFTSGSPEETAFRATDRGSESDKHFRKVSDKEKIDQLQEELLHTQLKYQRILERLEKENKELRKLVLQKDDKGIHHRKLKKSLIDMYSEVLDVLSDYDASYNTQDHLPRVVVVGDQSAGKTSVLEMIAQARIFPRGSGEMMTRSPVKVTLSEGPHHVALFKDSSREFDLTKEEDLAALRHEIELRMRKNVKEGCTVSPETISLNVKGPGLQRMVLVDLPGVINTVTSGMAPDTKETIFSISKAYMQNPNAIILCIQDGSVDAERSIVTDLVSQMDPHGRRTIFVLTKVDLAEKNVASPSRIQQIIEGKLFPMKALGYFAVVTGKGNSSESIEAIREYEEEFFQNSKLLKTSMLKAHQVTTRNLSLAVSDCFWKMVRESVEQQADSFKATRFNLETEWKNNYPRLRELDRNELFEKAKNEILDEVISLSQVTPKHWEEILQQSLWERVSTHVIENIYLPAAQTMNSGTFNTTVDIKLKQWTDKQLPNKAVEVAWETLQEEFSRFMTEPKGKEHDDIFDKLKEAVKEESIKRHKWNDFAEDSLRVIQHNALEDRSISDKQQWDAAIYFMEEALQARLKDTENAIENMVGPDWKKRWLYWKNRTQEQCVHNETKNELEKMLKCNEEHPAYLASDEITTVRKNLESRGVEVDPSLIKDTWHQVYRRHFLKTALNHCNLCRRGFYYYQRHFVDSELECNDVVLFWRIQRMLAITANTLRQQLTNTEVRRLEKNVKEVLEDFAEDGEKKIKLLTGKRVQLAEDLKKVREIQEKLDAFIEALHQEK
# UniProt P20774: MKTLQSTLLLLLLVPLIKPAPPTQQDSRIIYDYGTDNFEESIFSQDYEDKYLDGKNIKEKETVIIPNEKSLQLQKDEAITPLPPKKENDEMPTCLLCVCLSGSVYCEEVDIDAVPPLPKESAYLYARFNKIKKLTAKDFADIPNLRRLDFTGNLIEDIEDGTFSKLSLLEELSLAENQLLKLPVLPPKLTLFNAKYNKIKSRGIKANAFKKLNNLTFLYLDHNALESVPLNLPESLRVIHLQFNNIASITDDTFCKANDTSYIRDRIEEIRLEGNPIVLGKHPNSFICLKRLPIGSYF
# UniProt O43913: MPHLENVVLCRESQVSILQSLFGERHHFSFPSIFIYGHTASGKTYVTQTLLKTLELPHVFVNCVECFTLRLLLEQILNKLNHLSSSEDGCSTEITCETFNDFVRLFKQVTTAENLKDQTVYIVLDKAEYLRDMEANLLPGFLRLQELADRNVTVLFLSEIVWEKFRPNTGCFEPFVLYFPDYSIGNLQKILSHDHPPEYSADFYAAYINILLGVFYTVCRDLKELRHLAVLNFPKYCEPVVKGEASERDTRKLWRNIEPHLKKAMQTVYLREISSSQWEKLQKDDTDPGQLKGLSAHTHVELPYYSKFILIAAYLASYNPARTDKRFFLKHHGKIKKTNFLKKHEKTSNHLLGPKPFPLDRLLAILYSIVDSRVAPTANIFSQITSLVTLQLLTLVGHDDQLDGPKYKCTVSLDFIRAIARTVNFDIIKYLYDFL
# UniProt Q9BW27: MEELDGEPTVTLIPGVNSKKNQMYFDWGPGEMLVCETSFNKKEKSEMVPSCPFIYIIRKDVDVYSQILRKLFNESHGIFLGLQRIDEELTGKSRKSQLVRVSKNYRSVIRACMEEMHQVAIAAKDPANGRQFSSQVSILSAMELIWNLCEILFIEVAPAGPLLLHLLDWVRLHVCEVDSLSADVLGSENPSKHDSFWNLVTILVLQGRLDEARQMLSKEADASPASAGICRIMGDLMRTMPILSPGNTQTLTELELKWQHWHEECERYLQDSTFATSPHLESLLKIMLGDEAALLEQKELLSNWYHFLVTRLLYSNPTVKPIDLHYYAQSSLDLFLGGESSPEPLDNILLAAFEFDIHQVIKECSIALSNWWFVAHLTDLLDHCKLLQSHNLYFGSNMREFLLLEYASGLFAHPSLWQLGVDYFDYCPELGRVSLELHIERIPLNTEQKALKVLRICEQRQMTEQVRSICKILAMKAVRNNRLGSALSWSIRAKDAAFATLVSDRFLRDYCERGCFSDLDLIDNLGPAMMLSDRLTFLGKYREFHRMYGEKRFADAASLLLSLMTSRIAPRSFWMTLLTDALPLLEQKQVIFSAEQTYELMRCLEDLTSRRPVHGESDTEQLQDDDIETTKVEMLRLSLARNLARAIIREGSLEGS
# UniProt Q08J23, whole entry, looked up: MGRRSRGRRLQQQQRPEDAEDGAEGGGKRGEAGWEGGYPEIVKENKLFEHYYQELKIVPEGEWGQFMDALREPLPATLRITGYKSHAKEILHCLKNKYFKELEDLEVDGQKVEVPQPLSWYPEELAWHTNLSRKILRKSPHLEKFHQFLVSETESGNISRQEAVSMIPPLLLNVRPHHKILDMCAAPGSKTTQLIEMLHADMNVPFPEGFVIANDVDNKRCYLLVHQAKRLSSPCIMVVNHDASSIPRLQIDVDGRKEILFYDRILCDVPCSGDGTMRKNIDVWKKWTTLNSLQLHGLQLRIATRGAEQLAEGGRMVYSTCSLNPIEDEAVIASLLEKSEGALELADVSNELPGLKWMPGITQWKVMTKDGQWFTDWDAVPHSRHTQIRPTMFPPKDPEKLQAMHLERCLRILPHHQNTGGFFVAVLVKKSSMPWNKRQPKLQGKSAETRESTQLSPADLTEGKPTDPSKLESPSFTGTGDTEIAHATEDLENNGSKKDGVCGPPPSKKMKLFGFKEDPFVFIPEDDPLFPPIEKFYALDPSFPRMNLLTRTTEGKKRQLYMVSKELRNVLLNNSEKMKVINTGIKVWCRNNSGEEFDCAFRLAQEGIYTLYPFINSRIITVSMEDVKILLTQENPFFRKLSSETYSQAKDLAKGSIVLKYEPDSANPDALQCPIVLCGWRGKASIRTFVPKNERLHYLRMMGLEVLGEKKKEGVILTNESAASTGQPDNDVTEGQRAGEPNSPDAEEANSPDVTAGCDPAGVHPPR
# This is one part of the list.
# Experiments:
# Test in all cases: log2 fold change, soluble protein after heating vs DMSO (PISA); higher = thermal stabilisation; K562 cells, 10 uM, 30 min; active = over 0.2 and 3.5 SD of the protein, either way, in both replicates (recomputed)
# [1] = compound: COC1=CC=C(C=C1)CN2C=CC3=C2C=C(C=C3)C(=O)NO
# How it was run: (§1)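 Values are thermal stability changes relative to control samples and are taken from duplicates. They are stated as log2 fold changes. Before quantification by TMTpro 16plex LC-MS/MS with equalised channel sums, K562 cells at 2×10^6 cells/mL were treated with 10 μM compound for 30 min, heated in aliquots for 3 min across 48°C-58°C, pooled, extracted in PBS with 0.5% NP-40 at 4°C, and centrifuged at 21,000xg for 90 min to give the soluble supernatant.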
# filanesib = compound: CON(C)C(=O)N1N=C(c2cc(F)ccc2F)S[C@@]1(CCCN)c1ccccc1 [filanesib]
# How it was run: as §1
# zotarolimus = compound: CO[C@H]1C[C@@H]2CC[C@@H](C)[C@@](O)(O2)C(=O)C(=O)N2CCCC[C@H]2C(=O)O[C@H]([C@H](C)C[C@@H]2CC[C@H](n3cnnn3)[C@H](OC)C2)CC(=O)[C@H](C)/C=C(\C)[C@@H](O)[C@@H](OC)C(=O)[C@H](C)C[C@H](C)/C=C/C=C/C=C/1C [zotarolimus]
# How it was run: as §1
# idasanutlin = compound: COc1cc(C(=O)O)ccc1NC(=O)[C@@H]1N[C@@H](CC(C)(C)C)[C@](C#N)(c2ccc(Cl)cc2F)[C@H]1c1cccc(Cl)c1F [idasanutlin]
# How it was run: as §1
# alisertib = compound: COc1cc(Nc2ncc3c(n2)-c2ccc(Cl)cc2C(c2c(F)cccc2OC)=NC3)ccc1C(=O)O [alisertib]
# How it was run: as §1
# [2] = compound: COc1cc2nc(-c3cc(F)ccc3O)nc(N[C@@H]3CNC[C@H]3C(C)(C)O)c2cc1OC
# How it was run: as §1
# gefitinib = compound: COc1cc2ncnc(Nc3ccc(F)c(Cl)c3)c2cc1OCCCN1CCOCC1 [gefitinib]
# How it was run: as §1
# [3] = compound: COc1cccc2cc(-c3nc([C@H]4CC[C@H](C(=O)O)CC4)n4ncnc(N)c34)[nH]c12
# How it was run: as §1
# lapatinib = compound: CS(=O)(=O)CCNCc1ccc(-c2ccc3ncnc(Nc4ccc(OCc5cccc(F)c5)c(Cl)c4)c3c2)o1 [lapatinib]
# How it was run: as §1
# pictilisib = compound: CS(=O)(=O)N1CCN(Cc2cc3nc(-c4cccc5[nH]ncc45)nc(N4CCOCC4)c3s2)CC1 [pictilisib]
# How it was run: as §1
# [4] = compound: CS(=O)(=O)c1ccc(-c2cnc(N)c(C(=O)Nc3ccccc3)n2)cc1
# How it was run: as §1
# crizotinib = compound: C[C@@H](Oc1cc(-c2cnn(C3CCNCC3)c2)cnc1N)c1c(Cl)ccc(F)c1Cl [crizotinib]
# How it was run: as §1
# [5] = compound: C[C@@H]1COCCN1C2=NC(=NC(=C2)C3(CC3)S(=O)(=O)C)C4=C5C=CNC5=CC=C4
# How it was run: as §1
# [6] = compound: C[C@H](C1=CC=C(C=C1)C(=O)NC2=C3C=CNC3=NC=C2)N
# How it was run: as §1
# gandotinib = compound: Cc1cc(Nc2cc(CN3CCOCC3)c3nc(C)c(Cc4ccc(Cl)cc4F)n3n2)n[nH]1 [gandotinib]
# How it was run: as §1
# [7] = compound: Cc1cc(SCc2sc(-c3ccc(C(F)(F)F)cc3)nc2C)ccc1OCC(=O)O
# How it was run: as §1
# doramapimod = compound: Cc1ccc(-n2nc(C(C)(C)C)cc2NC(=O)Nc2ccc(OCCN3CCOCC3)c3ccccc23)cc1 [doramapimod]
# How it was run: as §1
# ispinesib = compound: Cc1ccc(C(=O)N(CCCN)[C@@H](c2nc3cc(Cl)ccc3c(=O)n2Cc2ccccc2)C(C)C)cc1 [ispinesib]
# How it was run: as §1
# duvelisib = compound: C[C@H](Nc1ncnc2nc[nH]c12)c1cc2cccc(Cl)c2c(=O)n1-c1ccccc1 [duvelisib]
# How it was run: as §1
# tozasertib = compound: Cc1cc(Nc2cc(N3CCN(C)CC3)nc(Sc3ccc(NC(=O)C4CC4)cc3)n2)n[nH]1 [tozasertib]
# How it was run: as §1
Target,log2 fold change [1],log2 fold change (filanesib),log2 fold change (zotarolimus),log2 fold change (idasanutlin),log2 fold change (alisertib),log2 fold change [2],log2 fold change (gefitinib),log2 fold change [3],log2 fold change (lapatinib),log2 fold change (pictilisib),log2 fold change [4],log2 fold change (crizotinib),log2 fold change [5],log2 fold change [6],log2 fold change (gandotinib),log2 fold change [7],log2 fold change (doramapimod),log2 fold change (ispinesib),log2 fold change (duvelisib),log2 fold change (tozasertib)
NUMA1 (UniProt Q14980),inactive: 0.002,inactive: 0.266,inactive: 0.13,inactive: 0.07,inactive: -0.088,inactive: -0.223,inactive: -0.001,inactive: -0.247,inactive: 0.062,inactive: 0.021,inactive: 0.117,inactive: -0.001,inactive: -0.071,inactive: 0.089,inactive: -0.066,inactive: 0.07,inactive: 0.178,inactive: -0.089,,
OCIAD1 (UniProt D6RDK6),inactive: -0.322,inactive: -0.072,inactive: -0.132,inactive: -0.034,inactive: 0.17,inactive: 0,,inactive: 0.189,inactive: -0.122,inactive: 0.071,inactive: 0.037,inactive: -0.041,inactive: 0.135,inactive: 0.166,inactive: -0.228,inactive: 0.033,inactive: 0.121,inactive: -0.342,inactive: 0.17,inactive: -0.179
NUDT16 (UniProt Q96DE0),inactive: -0.033,inactive: -0.018,inactive: 0.1,inactive: -0.01,inactive: -0.168,inactive: 0.025,inactive: 0.005,inactive: 0.112,inactive: 0.054,inactive: 0.045,inactive: 0.054,inactive: 0.052,inactive: 0.042,inactive: -0.169,inactive: 0.063,inactive: 0,inactive: -0.034,inactive: 0.067,,
OSBPL6 isoform 5 (UniProt Q9BZF3),inactive: -0.25,inactive: 0.781,,inactive: -0.227,inactive: -0.08,inactive: 0.148,inactive: 0.524,inactive: -0.213,inactive: 0.158,,inactive: -0.195,inactive: 0.428,inactive: -1.43,,,,inactive: 0.165,inactive: -0.373,,
OPA1 isoform 2 (UniProt O60313),inactive: -0.01,inactive: -0.118,inactive: 0.035,inactive: -0.105,inactive: 0.002,active: -0.249,inactive: -0.002,inactive: 0.002,inactive: 0.024,inactive: -0.07,inactive: 0.056,active: -0.326,inactive: 0.048,inactive: -0.003,inactive: -0.063,inactive: 0.054,inactive: -0.031,active: -0.337,,
OGN (UniProt P20774),inactive: 0.059,inactive: -0.051,inactive: 0.204,inactive: 0.214,inactive: -0.038,inactive: -0.066,inactive: 0.1,inactive: 0.137,inactive: -0.024,,inactive: 0.115,inactive: -0.038,inactive: 0.206,inactive: 0.298,,inactive: 0.363,inactive: -0.014,inactive: -0.057,inactive: 0.161,inactive: 0.044
ORC5 (UniProt O43913),inactive: 0.016,inactive: 0.104,inactive: 0.028,inactive: -0.013,inactive: 0.125,inactive: 0.07,inactive: 0.088,inactive: 0.018,inactive: 0.062,inactive: 0.012,inactive: 0.166,active: -0.766,,inactive: 0.008,inactive: -0.226,inactive: 0.135,inactive: -0.104,inactive: -0.152,,
NUP85 (UniProt Q9BW27),inactive: 0.01,inactive: -0.009,inactive: -0.022,inactive: 0.016,inactive: -0.061,inactive: -0.038,inactive: 0.025,inactive: 0.043,inactive: -0.042,inactive: 0.049,inactive: 0.022,inactive: -0.007,inactive: 0.049,inactive: -0.088,inactive: -0.107,inactive: 0.026,inactive: -0.021,inactive: 0.015,,
OBSCN (UniProt A6NGQ3),inactive: -0.267,inactive: 0.076,inactive: -0.204,inactive: 0.024,,inactive: 0.047,inactive: 0.059,,inactive: -0.09,,inactive: 0.147,inactive: 0.078,,inactive: 0.192,,,inactive: 0.093,inactive: -0.179,,inactive: -0.085
NSUN2 (UniProt Q08J23),inactive: -0.153,inactive: -0.002,inactive: -0.046,inactive: 0.021,inactive: -0.022,inactive: -0.235,inactive: 0.015,inactive: -0.003,inactive: 0.035,inactive: -0.088,inactive: -0.107,inactive: -0.034,inactive: 0.031,inactive: 0.008,inactive: -0.151,inactive: 0.053,inactive: 0.067,inactive: -0.098,,

# Two records picked at random from those above, as already listed:
Target,log2 fold change [1],log2 fold change (filanesib),log2 fold change (zotarolimus),log2 fold change (idasanutlin),log2 fold change (alisertib),log2 fold change [2],log2 fold change (gefitinib),log2 fold change [3],log2 fold change (lapatinib),log2 fold change (pictilisib),log2 fold change [4],log2 fold change (crizotinib),log2 fold change [5],log2 fold change [6],log2 fold change (gandotinib),log2 fold change [7],log2 fold change (doramapimod),log2 fold change (ispinesib),log2 fold change (duvelisib),log2 fold change (tozasertib)
NSUN2 (UniProt Q08J23),inactive: -0.153,inactive: -0.002,inactive: -0.046,inactive: 0.021,inactive: -0.022,inactive: -0.235,inactive: 0.015,inactive: -0.003,inactive: 0.035,inactive: -0.088,inactive: -0.107,inactive: -0.034,inactive: 0.031,inactive: 0.008,inactive: -0.151,inactive: 0.053,inactive: 0.067,inactive: -0.098,,
OSBPL6 isoform 5 (UniProt Q9BZF3),inactive: -0.25,inactive: 0.781,,inactive: -0.227,inactive: -0.08,inactive: 0.148,inactive: 0.524,inactive: -0.213,inactive: 0.158,,inactive: -0.195,inactive: 0.428,inactive: -1.43,,,,inactive: 0.165,inactive: -0.373,,
